Publication PMC5294574, “Stoichiometry and structure of a lantibiotic maturation complex” (Scientific Reports, 2017)
These are yes or no findings as the source states them, for the method shown.

Assays:
[1] = target: NisC (lantibiotic cyclase) (Lactococcus lactis) (UniProt Q03202); assay: SEC-MALS; isolated NisB or NisC, 200 μL of a 20 μM solution; 50 mM HEPES-NaOH, pH 7.5, 500 mM NaCl; both purified
[2] = target: NisC (lantibiotic cyclase) (Lactococcus lactis) (UniProt Q03202); assay: SEC-SAXS; isolated NisB (200 μM) or NisC (470 μM), 200 μL on Superdex 200, 4 °C; 50 mM HEPES-NaOH, pH 7.5, 500 mM NaCl, 5% glycerol; molecular weight from POROD volume; both purified

B1: NisC (lantibiotic cyclase) (enzyme, UniProt Q03202 1-418)
chain: MRIMMNKKNIKRNVEKIIAQWDERTRKNKENFDFGELTLSTGLPGIILMLAELKNKDNSKIYQKKIDNYIEYIVSKLSTYGLLTGSLYSGAAGIALSILHLREDDEKYKNLLDSLNRYIEYFVREKIEGFNLENITPPDYDVIEGLSGILSYLLLINDEQYDDLKILIINFLSNLTKENNGLISLYIKSENQMSQSESEMYPLGCLNMGLAHGLAGVGCILAYAHIKGYSNEASLSALQKIIFIYEKFELERKKQFLWKDGLVADELKKEKVIREASFIRDAWCYGGPGISLLYLYGGLALDNDYFVDKAEKILESAMQRKLGIDSYMICHGYSGLIEICSLFKRLLNTKKFDSYMEEFNVNSEQILEEYGDESGTGFLEGISGCILVLSKFEYSINFTYWRQALLLFDDFLKGGKRK
- binding [1]: no binding (tested: 20 μM)
- binding [2]: no binding (tested: 470 μM)
